PubChem BioAssay AID686943 – Drosophila RNAi Screening Center – 2013
The screen tested about 23,000 reagents; shown is an unselected part of those that have a named target and a result. 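Extra replicates exist only for a retested subset of genes; insulin dose and duration not given; both raised and lowered dpERK matter.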 A plus sign joins genes that one reagent is predicted to hit. Not stated in the record: the amount of reagent, the time to read-out.

- Purpose: 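Knockdowns that increase or decrease active ERK after insulin receptor stimulation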 (primary screen)
- System: Drosophila S2R+ haemocyte-like cells expressing YFP-tagged ERK (Rolled)
- Reagent: long dsRNA against Drosophila genes
- Treatment: insulin stimulation versus unstimulated cells; dose and duration not given
- Measured: 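Antibody staining for doubly phosphorylated ERK divided by ERK-YFP signal, as plate z-scores, in insulin-treated and untreated cells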
- Scale: replicate 1, z-score of dpERK with insulin and replicate 2, z-score of dpERK with insulin: higher = more active ERK per ERK-YFP after insulin; replicate 1, z-score of dpERK under basal conditions: higher = more basal active ERK per ERK-YFP; replicate 1, z-score of ERK-YFP with insulin: higher = more YFP-tagged ERK signal

Target gene	amplicon	replicate 1, z-score of dpERK with insulin	replicate 2, z-score of dpERK with insulin	replicate 1, z-score of dpERK under basal conditions	replicate 1, z-score of ERK-YFP with insulin
CG18404	DRSC15323	0.38	0.06	0.64	0.72
oxt	DRSC08522	-0.12	0.43	-0.41	0.04
Dgat2	DRSC06803	0.37	-0.34	1.41	0.12
CG13003	DRSC19522	-0.82	-0.62	-0.15	1.26
CG33332	DRSC15504	-0.94	-0.27	1.17	0.84
CG8773	DRSC16444	1.1	-0.92	0.07	1.94
CG31544 (retired record)	DRSC12466	0.21	1.66	1.1	-0.2
CG4942	DRSC10462	0.23	0.11	-0.55	0.5
Nup358	DRSC14410	-1.54	0.76	0.43	-2.3
Graf	DRSC20131	0.19	0.38	-0.01	-0.43
Sec13	DRSC14144	0.92	-0.11	2.36	-2.67
CG5181	DRSC02825	0.6	0.73	-0.91	0.93
RpL6	DRSC14323	-2.36	1.4	-0.97	-2.38
RpL6	DRSC22384	-0.69	-1.32	5.28	-3.69
CG34462	DRSC10768	0.83	0.71	0.48	-0.55
CG10914	DRSC06010	0.41	0.31	0.11	-0.03
dre4	DRSC08714	-0.62	-2.14	-4.44	0.93
CG44251	DRSC06856	0.73	0.58	0.72	0.02
CG32793	DRSC18145	0.93	0.26	0.07	-0.11
CG32793	DRSC18194	0.35	0.42	-1.26	-0.46
hob	DRSC08426	-0.01	-0.36	0.13	0.29

Copied from the listing, 4 entries:
Target gene	amplicon	replicate 1, z-score of dpERK with insulin	replicate 2, z-score of dpERK with insulin	replicate 1, z-score of dpERK under basal conditions	replicate 1, z-score of ERK-YFP with insulin
CG8773	DRSC16444	1.1	-0.92	0.07	1.94
CG31544 (retired record)	DRSC12466	0.21	1.66	1.1	-0.2
CG4942	DRSC10462	0.23	0.11	-0.55	0.5
Nup358	DRSC14410	-1.54	0.76	0.43	-2.3

The list goes on.
Target gene	amplicon	replicate 1, z-score of dpERK with insulin	replicate 2, z-score of dpERK with insulin	replicate 1, z-score of dpERK under basal conditions	replicate 1, z-score of ERK-YFP with insulin
CG2854	DRSC18595	0.03	0.71	1.56	-0.55
CG3430	DRSC02713	-0.16	0.01	-0.31	-0.82
wfs1	DRSC15676	0.35	1.08	-0.37	0
CG32647	DRSC19690	0.26	0.69	-0.05	0.36
CG32647	DRSC19878	-0.59	-0.73	-1.2	-0.93
CG3257	DRSC04351	0.4	0.77	0.6	-0.18
Antp	DRSC12490	-2.04	0.37	0.95	-3.15
Crtp	DRSC04604	0.74	1.03	-0.09	-0.31
plu	DRSC07665	-0.84	-0.16	-0.64	-0.44
EndoGI	DRSC01964	0.3	0.08	0.71	-0.25
SmydA-8	DRSC18797	1.22	-1.31	1.44	-0.32
SmydA-8	DRSC22064	0.3	0.54	-0.09	0.95
SmydA-8	DRSC22263	-1.24	0.39	0.25	-0.18
Rtnl1	DRSC00851	-0.65	-0.63	0.21	0.39
Rtnl1	DRSC02684	0.67	0.76	0.4	-1.27
Rtnl1	DRSC03122	-0.06	0.38	-0.32	0.74
Rtnl1	DRSC21698	0.33	0.66	0.71	0.39
Ilk	DRSC11868	0.11	0.76	0.58	-0.45
EloB	DRSC16663	0.32	1.15	0.01	0.39
nvd	DRSC22139	-2.46	0.41	-0.05	0.43
CG31883	DRSC02561	0.39	0.16	0.72	1.02
CG7420	DRSC00704	-0.48	-0.57	-0.04	0.47
CG8036	DRSC16366	-0.25	-0.1	0.29	-0.26
Tsp42Ek	DRSC06187	0.76	0.6	0.16	0.16
miple1	DRSC08722	1.21	1.12	0.13	-1.49
yellow-d2	DRSC04591	0.18	-0.19	2.17	-0.81
CG33791 + CG12105 + CG18170	DRSC08387	0.29	-0.46	-0.57	0.05
CG6066	DRSC15959	1.83	-0.01	0.37	0.5
CG6066	DRSC22228	0.26	0.91	0.56	0.38
mtd	DRSC12131	0.38	0.82	-0.05	-0.73
mtd	DRSC12380	0.47	0.78	-0.65	0
mtd	DRSC12381	0.72	-0.57	0.71	0.19
Cdc37	DRSC08648	-0.94	0.11	2.02	0.35
Cpr76Bd	DRSC11063	-0.3	-0.18	0.56	-0.03
CG9166	DRSC07842	-1.45	-1.06	-0.54	0.35
por	DRSC20362	0.6	0.48	0.55	0.56
